Data as given in article PMC6374739.
Substitutions are numbered along the chain they refer to. Names and notes keep the numbering of the source. No constants are given. Whether binding was seen depends on the method and setting. In cells and extracts the contact can be indirect. Some results given as binding are weak or reduced against the parent protein; the word gives no strength. Where a sequence is shown, tags or fusion partners need not be part of it.

Tests used:
[1] = biological target: T1, mCherry-UVR8-GFP (wild-type UV … LOCUS 8, from the pFRET-NcCg-DEST vector) (Arabidopsis thaliana), Q9FN03; assay: FRET or BRET; acceptor photobleaching (50 s, 100% 552 nm), percent increase of GFP fluorescence, tobacco leaf cells; mCherry-UVR8-GFP chains (pFRET-NcCg-DEST), intra- and intermolecular FRET both contribute; leaves with or without 3 umol m^-2 s^-1 broadband UV-B for 1 hour; settings: remark: other sources report otherwise
T1 chain: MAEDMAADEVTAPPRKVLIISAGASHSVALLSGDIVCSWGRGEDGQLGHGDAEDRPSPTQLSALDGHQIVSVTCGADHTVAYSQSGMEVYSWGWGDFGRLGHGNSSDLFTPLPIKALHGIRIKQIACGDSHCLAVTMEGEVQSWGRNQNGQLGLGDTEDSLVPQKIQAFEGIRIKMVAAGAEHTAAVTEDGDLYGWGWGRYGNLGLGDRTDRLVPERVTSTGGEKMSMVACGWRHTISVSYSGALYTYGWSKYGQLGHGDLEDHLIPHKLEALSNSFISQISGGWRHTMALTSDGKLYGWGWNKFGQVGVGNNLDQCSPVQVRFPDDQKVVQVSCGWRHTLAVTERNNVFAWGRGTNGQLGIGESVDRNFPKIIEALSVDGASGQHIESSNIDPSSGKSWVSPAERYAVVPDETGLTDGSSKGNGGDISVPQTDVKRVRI

[2] = biological target: T1, mCherry-UVR8-GFP (wild-type UV … LOCUS …); assay: FRET or BRET; sensitised emission, ratio mCherry (488)/GFP (488), confocal microscopy of tobacco leaf cells; one chain with mCherry at the N- and GFP at the C-terminus (pFRET-NcCg-DEST), so intra- and intermolecular FRET both contribute; leaves with or without 3 umol m^-2 s^-1 broadband UV-B for 1 hour; settings: remark: other sources report otherwise
[3] = biological target: T2, mCherry-UVR8-mCherry/GFP-UVR8-GFP (wild-type UVR8, two differently tagged copies from the pFRET-2in1-DEST vector) (Arabidopsis thaliana), Q9FN03; assay: FRET or BRET; sensitised emission, ratio mCherry (488)/GFP (488), tobacco leaf cells; GFP-UVR8-GFP and mCherry-UVR8-mCherry co-expressed 1:1 (pFRET-2in1-DEST), only intermolecular FRET; leaves with or without 3 umol m^-2 s^-1 broadband UV-B for 1 hour; settings: remark: other sources report otherwise
T2 chain: T1 chain

[4] = biological target: T2, mCherry-UVR8-mCherry/GFP-UVR8-GFP …; assay: FRET or BRET; acceptor photobleaching (50 s, 100% 552 nm), percent increase of GFP fluorescence, tobacco leaf cells; GFP-UVR8-GFP and mCherry-UVR8-mCherry co-expressed 1:1 (pFRET-2in1-DEST), only intermolecular FRET; leaves with or without 3 umol m^-2 s^-1 broadband UV-B for 1 hour; settings: remark: other sources report otherwise
[5] = biological target: mCherry-UVR8^W285F-mCherry/GFP-UVR8^W285F-GFP (two differently tagged copies from the pFRET-2in1-DEST vector) (Arabidopsis thaliana) (UniProt Q9FN03); assay: as above
[6] = biological target: mCherry-UVR8^W285F-mCherry/GFP-UVR8^W285F-GFP (two differently tagged copies from the pFRET-2in1-DEST vector) (Arabidopsis thaliana) (UniProt Q9FN03); assay: FRET or BRET; sensitised emission, ratio mCherry (488)/GFP (488), tobacco leaf cells; GFP-UVR8-GFP and mCherry-UVR8-mCherry co-expressed 1:1 (pFRET-2in1-DEST), only intermolecular FRET; leaves with or without 3 umol m^-2 s^-1 broadband UV-B for 1 hour
[7] = biological target: mCherry-UVR8^W285F-GFP (from the pFRET-NcCg-DEST vector) (Arabidopsis thaliana) (UniProt Q9FN03); assay: FRET or BRET; acceptor photobleaching (50 s, 100% 552 nm), percent increase of GFP fluorescence, tobacco leaf cells; mCherry-UVR8-GFP chains (pFRET-NcCg-DEST), intra- and intermolecular FRET both contribute; leaves with or without 3 umol m^-2 s^-1 broadband UV-B for 1 hour
[8] = biological target: mCherry-UVR8^W285F-GFP (from the pFRET-NcCg-DEST vector) (Arabidopsis thaliana) (UniProt Q9FN03); assay: FRET or BRET; sensitised emission, ratio mCherry (488)/GFP (488), confocal microscopy of tobacco leaf cells; one chain with mCherry at the N- and GFP at the C-terminus (pFRET-NcCg-DEST), so intra- and intermolecular FRET both contribute; leaves with or without 3 umol m^-2 s^-1 broadband UV-B for 1 hour

B1: mCherry-UVR8-GFP (wild-type UV … LOCUS 8, from the pFRET-NcCg-DEST vector), Q9FN03 1-440 (protein)
chain: T1 chain
binding [1]: binds | binding [2]: binds

B2: mCherry-UVR8-mCherry/GFP-UVR8-GFP (wild-type UVR8, two differently tagged copies from the pFRET-2in1-DEST vector), Q9FN03 1-440 (protein)
chain: T1 chain
binding [3]: binds | binding [4]: binds

B3: mCherry-UVR8^W285F-mCherry/GFP-UVR8^W285F-GFP (two differently tagged copies from the pFRET-2in1-DEST vector) (protein, UniProt Q9FN03 1-440)
chain: T1 chain with W285F
binding [5]: binds | binding [6]: binds

B4: mCherry-UVR8^W285F-GFP (from the pFRET-NcCg-DEST vector) (protein, UniProt Q9FN03 1-440)
chain: T1 chain with W285F
binding [7]: binds | binding [8]: binds
